Measured values from PubChem BioAssay AID2685 (National Center for Advancing Translational Sciences (NCATS), 2010).
The list shows a part of the results. Further columns of the screen follow, without active or inactive calls. Most of these compounds were active or inconclusive in the main read-out, so they are no random draw. Potencies come from curve fits of mixed quality, noted in brackets.

Experiment: qHTS Assay for Lipid Storage Modulators in Drosophila S3 Cells;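 on cell number change: cells counted by Cell Tracker Red CMTPX staining in the red channel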
Conditions: BODIPY lipid droplet fluorescence, 18-24 h; for cell number change: measured here: cell count max response, cells fed with added oleic acid
In short: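 Drosophila S3 cells got compounds at several concentrations plus oleic acid (400 uM solution). Laser-scanning cytometry with 488 nm excitation read lipid droplets at 500-530 nm and cells at 575-640 nm. Percent activity was relative to 20 uM Triacsin C.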

[1] = measured here: lipid fluorescence (Fed channel) AC50, cells fed with added oleic acid
[2] = measured here: cell number channel AC50, cells fed with added oleic acid

Structure (SMILES)	cell number change [%]	AC50 [1]	AC50 [2]
CCOC(=O)N1CCN(C(=O)CNC(=O)c2nn(-c3ccc(OC)c(OC)c3)c(=O)c3ccccc23)CC1	7.69		
COc1ccc(C(NC(=O)c2cc(OC)ccc2OC)c2ccccc2)cc1 (stereo not drawn)	-7.56	3.26 µM [rising, single point]	
CC(C)c1nnc(NC(=O)CCS(=O)(=O)Cc2ccccc2)s1	15.8	29.1 µM [rising, single point]	
CSCCC(NC(=O)CCNC(=O)c1ccccc1Cl)c1nc2ccccc2[nH]1 (stereo not drawn)	22.9		
CC(C)CN1CCN=C1Nc1ccccc1	3.89		
CC(=O)c1sc(NC(=O)c2oc3ccc(F)cc3c2C)nc1C	28.7	16.4 µM [rising, single point]	
CCOC(=O)c1ccc(N2C(=O)C3CC=CCC3C2=O)cc1 (stereo not drawn)	43.5		29.1 µM [rising, single point]
CCOC(=O)c1cc(CO)cc(C(=O)OCC)c1	2.57	25.9 µM [rising, partial curve]	
CC1(C)O[C@@H]1COc1c2ccoc2cc2oc(=O)ccc12	4.57	0.517 µM [rising, full curve]	
Cc1ccc(NCC(=O)Nc2cccc(S(=O)(=O)N(C)C)c2)cc1S(=O)(=O)N1CCCCCC1	50		10.3 µM [rising, single point]
Cc1c(NC(=O)C(C)OC(=O)C23CC4CC(CC(Br)(C4)C2)C3)c(=O)n(-c2ccccc2)n1C (stereo not drawn)	-129	18.4 µM [falling, partial curve]	14.6 µM [falling, partial curve, poor fit]
Cc1nc2ccccn2c1C(=O)N/N=C/c1ccc([N+](=O)[O-])o1	-2.04	0.58 µM [falling, full curve]	1.3 µM [falling, partial curve]
Cc1[nH]c2ccccc2c1C(=O)C(=O)NC1CC1	29.2	0.651 µM [falling, partial curve, poor fit]	
O=C(NCc1ccco1)c1cnc2n(c1=O)CCS2	6.66	0.13 µM [falling, single point]	
CN(CC(=O)Nc1cccc(F)c1)C(=O)CN1C(=O)C2CC=CCC2C1=O (stereo not drawn)	-33.2	4.11 µM [falling, full curve, poor fit]	4.11 µM [falling, full curve, poor fit]
Cc1cccc(NC(=S)N2CCCCCC2)c1C	-6.07	0.58 µM [rising, single point]	
Cc1cc(C(=O)Nc2ccc(Br)cc2)cs1	3.78	0.58 µM [falling, single point]	
Cc1ccccc1NC(=O)CSc1nnc(C2CC2)n1CC1CCCO1 (stereo not drawn)		6.51 µM [rising, single point]	5.17 µM [rising, partial curve, poor fit]
Cc1ccc(C(OCC(O)CNC(C)c2ccccc2)c2ccccc2)cc1 (stereo not drawn)	-46.5		
Cc1ccc(/C=N/NC(=O)c2nnn(-c3nonc3N)c2CNc2ccccc2)cc1	-15.6	0.58 µM [falling, single point]	
Cc1nc(NS(=O)(=O)c2cccs2)c2c3c(sc2n1)CCC3	-17.2	0.00517 µM [rising, full curve, poor fit]	2.06 µM [falling, partial curve]
Cn1c(-c2cccc(Br)c2)n[nH]c1=O	-19.1	20.6 µM [falling, single point]	
O=c1oc2ccccc2nc1/C=C(\O)c1ccc(Br)cc1	8.57	1.84 µM [rising, single point]	
C[n+]1c2n(c3ccccc31)N=C(c1cc(C(C)(C)C)c(O)c(C(C)(C)C)c1)CS2	-55.9	25.9 µM [falling, partial curve]	3.26 µM [falling, full curve]
OCC[C@@H]1C[C@H](O)[C@@H](O)[C@@]2(CCc3ccccc3O2)O1	13.5	0.0366 µM [falling, full curve, poor fit]	
N#Cc1c[nH]n2c(=O)c3c(nc12)CCC3	2.26	32.6 µM [falling, single point]	
O=C1CCC([N+](=O)[O-])C(c2cccc3ccccc23)N1 (stereo not drawn)	-31	0.0058 µM [falling, full curve, poor fit]	
CCOCCOC(=O)NCCCCCCNC(=O)OCCOCC			2.31 µM [falling, partial curve]
COc1ccc(N(CC(=O)NCc2ccccc2)C(=O)Cn2nnc(-c3ccccc3F)n2)cc1OC	14.6	5.8 µM [rising, partial curve, poor fit]	

5 consecutive records already listed:
Structure (SMILES)	cell number change [%]	AC50 [1]	AC50 [2]
CSCCC(NC(=O)CCNC(=O)c1ccccc1Cl)c1nc2ccccc2[nH]1 (stereo not drawn)	22.9		
CC(C)CN1CCN=C1Nc1ccccc1	3.89		
CC(=O)c1sc(NC(=O)c2oc3ccc(F)cc3c2C)nc1C	28.7	16.4 µM [rising, single point]	
CCOC(=O)c1ccc(N2C(=O)C3CC=CCC3C2=O)cc1 (stereo not drawn)	43.5		29.1 µM [rising, single point]
CCOC(=O)c1cc(CO)cc(C(=O)OCC)c1	2.57	25.9 µM [rising, partial curve]	
